Laboratory results reported in patent US20080280933A1, “BENZIMIDAZOLYL COMPOUNDS” (priority 2006, published 2008).
The match of structure and compound is tentative.

Protein sequences, listed by entry. Tags and fused reporters are not part of them. Residues count along the entry.
UniProt Q14416, 19-872 limits assumed: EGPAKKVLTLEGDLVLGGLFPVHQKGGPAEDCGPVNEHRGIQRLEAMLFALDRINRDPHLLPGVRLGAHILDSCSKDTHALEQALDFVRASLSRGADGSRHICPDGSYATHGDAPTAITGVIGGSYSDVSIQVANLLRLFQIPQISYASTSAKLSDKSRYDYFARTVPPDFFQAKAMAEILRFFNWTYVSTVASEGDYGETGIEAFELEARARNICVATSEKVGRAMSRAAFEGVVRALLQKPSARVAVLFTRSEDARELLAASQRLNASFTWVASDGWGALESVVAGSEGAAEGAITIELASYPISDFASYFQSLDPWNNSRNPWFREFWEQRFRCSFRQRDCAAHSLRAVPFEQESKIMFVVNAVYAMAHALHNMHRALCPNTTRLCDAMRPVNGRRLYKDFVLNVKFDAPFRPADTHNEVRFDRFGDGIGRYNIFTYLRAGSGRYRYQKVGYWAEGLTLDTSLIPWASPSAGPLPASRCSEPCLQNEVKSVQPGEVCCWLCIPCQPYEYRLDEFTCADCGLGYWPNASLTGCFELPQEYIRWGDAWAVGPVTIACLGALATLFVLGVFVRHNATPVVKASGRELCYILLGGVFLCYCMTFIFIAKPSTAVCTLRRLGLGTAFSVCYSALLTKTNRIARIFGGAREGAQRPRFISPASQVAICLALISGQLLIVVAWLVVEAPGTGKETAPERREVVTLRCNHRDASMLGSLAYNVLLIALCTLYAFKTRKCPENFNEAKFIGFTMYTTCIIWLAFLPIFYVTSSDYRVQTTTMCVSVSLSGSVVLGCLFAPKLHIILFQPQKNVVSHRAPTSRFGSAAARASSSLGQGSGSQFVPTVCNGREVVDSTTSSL

Target: mGluR2 receptor (metabotropic glutamate receptor 2) (Homo sapiens, UniProt Q14416)
Test: mGluR2 Potentiator Screen, FLIPR, EC10-EC20 glutamate challenge
Procedure: Procedure for mGluR2 Potentiator Screen NLB Methods EC10-EC20 Challenge Cell Culture and Plating:
Cells used for this screen are HEK cells stably transfected with the mGluR2 receptor (metabotropic glutamate receptor 2) and the Gα15 G protein. Clones were identified by functional activity (FLIPR). Cells are grown in growth media containing: DMEM High Glucose with Glutamine and Na Pyruvate (GIBCO), 10% (v/v) Heat inactivate FBS (GIBCO) G418 500 ug/ml (from 50 mg/ml stock) (GIBCO) and Blasticidin 3 ug/ml (from 5 mg/ml stock made in H2O) (Invitrogen).
2 days before the assay cell are trypsinized with 0.25% trysin/EDTA (GIBCO), spun down at 1000 rpm for 5 minutes, resuspended in growth media and plated on polystyrene 384 well black wall/clear bottom poly-D-lysine coated plates at a density of approximately 18,000 cells/well in a volume of 50 μL per well. One day before the assay the growth media is removed from the plates by flicking and replaced with media containing DMEM High Glucose without Glutamine and Na Pyruvate (GIBCO) and 10% (v/v) dialyzed FBS (GIBCO). […]
Results are analyzed by dividing the peak fluorescent value of the FLIPR response by the […] to achieve a ratio response. The ratios are then analyzed by curve fitting programs. […]

SMILES: Cc1ccc(C2CCN(Cc3nc4ccccc4n3C)CC2)cc1
- EC50: 56.2 nM
